Drawing on patent US20150374767A1, “Treatment of Cancer” (priority 2013, published 2015), this text covers IC50 for one molecule.

What is called IC50 is the midpoint of a concentration-inhibition curve.

The subject of this experiment is Virttu cell line panel. Briefly: cells. It is filed as cell-based. As to conditions: Homo sapiens, A-431, 72 h, read-out: IC50 (DCP leakage), range.

Each structure is given as a SMILES string.

In the case of `COc1cc2ncnc(Nc3ccc(F)c(Cl)c3)c2cc1OCCCN1CCOCC1` [Gefitinib, N-(3-chloro-4-fluoro-phenyl)-7-methoxy-6-(3-morpholin-4-ylpropoxy)quinazolin-4-amine], the IC50 lay within 4 to 30 µM.
